Measured values: publication doi:10.1101/2020.03.13.990168
Results are given in words; binding and its absence hold for the method and conditions named. In cells and extracts the contact can be indirect. These calls come from enrichment with a bait or labelling near it, and not all partners need be listed.

Target: HflX (GTPase HflX of M. bovis BCG) (M. bovis BCG (endogenous in M. bovis BCG))
Assay: affinity purification with mass spectrometry

B1: ribosomal protein S6 of the 30S ribosomal subunit (protein, UniProt A1KEM1 1-96)
chain: MRPYEIMVILDPTLDERTVAPSLETFLNVVRKDGGKVEKVDIWGKRRLAYEIAKHAEGIYVVIDVKAAPATVSELDRQLSLNESVLRTKVMRTDKH
  binding: binds

B2: ribosomal protein L30 of the 50S ribosomal subunit (protein, UniProt A1KGK3 1-65)
chain: MSQLKITQVRSTIGARWKQRESLRTLGLRRIRHSVIREDNAATRGLIAVVRHLVEVEPAQTGGKT
  binding: binds

B3: ribosomal protein S17 of the 30S ribosomal subunit (protein, UniProt O06051 1-135)
chain: MAEAKTGAKAAPRVAKAAKAAPKKAAPNDAEAIGAANAANVKGPKHTPRTPKPRGRRKTRIGYVVSDKMQKTIVVELEDRMRHPLYGKIIRTTKKVKAHDEDSVAGIGDRVSLMETRPLSATKRWRLVEILEKAK
  binding: binds
